Measurements: patent US20210101984A1 (JIANGSU HENGRUI MEDICINE, published 2021)
Results are given in words; binding and its absence hold for the method and conditions named. Some results given as binding are weak or reduced against the parent protein; the word gives no strength.

Key:
[1] = biological target: T1, murine B7-H3 antigen (R&D cat# 1397-B3-050/CF) (murine) (UniProt Q8VE98); assay: SPR (Biacore)
T1 sequence: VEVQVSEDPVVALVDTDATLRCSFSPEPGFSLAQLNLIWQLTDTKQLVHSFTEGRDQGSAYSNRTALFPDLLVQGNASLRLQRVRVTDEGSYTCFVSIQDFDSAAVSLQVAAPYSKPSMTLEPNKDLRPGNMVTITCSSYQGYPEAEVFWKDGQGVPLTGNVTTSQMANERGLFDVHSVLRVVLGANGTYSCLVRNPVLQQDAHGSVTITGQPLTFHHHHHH

[2] = biological target: T2, human 2Ig-B7-H3 antigen (R&D cat# 1949-B3-050/CF) (human) (UniProt Q5ZPR3); assay: SPR (Biacore)
T2 sequence: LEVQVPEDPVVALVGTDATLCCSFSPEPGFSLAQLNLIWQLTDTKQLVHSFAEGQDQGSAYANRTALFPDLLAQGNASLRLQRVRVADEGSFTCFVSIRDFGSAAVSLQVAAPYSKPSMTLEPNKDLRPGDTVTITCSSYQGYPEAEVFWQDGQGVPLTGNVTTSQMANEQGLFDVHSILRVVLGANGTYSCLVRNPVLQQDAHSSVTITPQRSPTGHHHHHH

[3] = biological target: T3, human 4Ig-B7-H3 antigen (SinoBiological cat# 11188-H08H) (human) (UniProt Q5ZPR3); assay: SPR (Biacore)
T3 sequence: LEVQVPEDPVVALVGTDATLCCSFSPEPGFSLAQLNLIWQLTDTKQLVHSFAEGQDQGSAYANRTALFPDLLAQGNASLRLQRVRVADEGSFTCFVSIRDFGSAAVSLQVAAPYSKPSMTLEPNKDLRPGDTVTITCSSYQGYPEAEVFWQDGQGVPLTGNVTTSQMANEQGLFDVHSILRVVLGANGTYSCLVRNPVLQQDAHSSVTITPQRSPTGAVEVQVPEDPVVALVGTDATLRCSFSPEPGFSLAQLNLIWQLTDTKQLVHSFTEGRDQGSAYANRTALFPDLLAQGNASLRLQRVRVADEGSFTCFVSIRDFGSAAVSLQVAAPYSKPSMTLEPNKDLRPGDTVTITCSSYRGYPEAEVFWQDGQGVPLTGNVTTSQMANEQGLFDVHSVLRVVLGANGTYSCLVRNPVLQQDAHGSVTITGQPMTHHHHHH

[4] = biological target: T2, human 2Ig-B7-H3 antigen (R&D cat# 1949-B3-050/CF) (human); assay: ELISA, plate coated with human 2Ig-B7-H3 at 1 ug/ml, HRP anti-human IgG Fc detection, OD450
[5] = biological target: T1, murine B7-H3 antigen (R&D cat# 1397-B3-050/CF) (murine); assay: ELISA
[6] = biological target: T2, human 2Ig-B7-H3 antigen (R&D cat# 1949-B3-050/CF) (human); assay: ELISA
[7] = biological target: T3, human 4Ig-B7-H3 antigen (SinoBiological cat# 11188-H08H) (human); assay: ELISA
[8] = biological target: T3, human 4Ig-B7-H3 antigen (SinoBiological cat# 11188-H08H) (human); assay: ELISA, plate coated with human 4Ig-B7-H3 at 1 ug/ml, HRP anti-human IgG Fc detection, OD450
[9] = biological target: T1, murine B7-H3 antigen (R&D cat# 1397-B3-050/CF) (murine); assay: ELISA, plate coated with murine B7-H3 at 1 ug/ml, HRP anti-human IgG Fc detection, OD450

Measured: binding

B1: h1703-IgG1 (antibody, V domains shown)
VH: QVQLQESGGGLVQPGGSLRLSCAASGFTFSSYAMSWVRQAPGKGLEWVSAISGSGGSTYYADSVKGRYTISRDNSKNTLYLQMNSLRAEDTAVYYCAKGVGPVHALDVWGQGTTVTVSS
VL: DIRLTQSPSSLSASVGDRVTITCRASQSISTYLNWYQQKPGKAPILLINAVSGLQSGVPSRFSGSGSGTHFTLTITSLQPEDFATYYCQQSYSTPMWTFGQGTKVEIKR
notes: Fully human IgG1 with kappa light chain, from an scFv phage library, expressed in HEK293E cells
binds: [1] | [2] | [3] | [4] | [5] | [6] | [7] | [8] | [9]
